Data published in patent publication US20220151274A1, “PREPARATIONS WITH C-METHYL FLAVONOIDS” (BRAIN AG, priority 2018, published 2022).

Experiments:
[1] = Tasting of high-purity Pinoquercetin + potassium chloride (KCl); format: in vivo
Experimental: The sensory evaluation of the samples was performed twice by a team of seven experienced assessors.

[2] = Tasting of extracts containing Pinoquercetin (natural taste, sip and spit); format: in vivo; conditions: ethanol below 0.5%, vs 0.5% ethanol in water, 3-5 assessors

Row | Molecule | average confidence score ([1]; 25 μM (8 ppm) with 1.5% potassium chloride in spring water) | average confidence score ([1]; 50 μM (16 ppm) with 1.5% potassium chloride in spring water) | Descriptive evaluation of taste ([2]; 3 mg/l) | Descriptive evaluation of taste ([2]; 7.5 mg/l)
1 | Cc1c(O)cc2oc(-c3ccc(O)c(O)c3)c(O)c(=O)c2c1O [Pinoquercetin] | confidence score: fairly sure dominant | confidence score: fairly sure dominant |  | 
2 | Pinoquercetin |  |  | neutral | neutral
